No constants are given. Whether binding was seen depends on the method and setting. In cells and extracts the contact can be indirect. Here binding means that the protein was enriched with, or labelled near, the bait; the list need not be complete.
Biological target: Nuclear distribution gene C (NudC), endogenous in HeLa cells (human (endogenous in HeLa)) (UniProt Q9Y266)
Test: affinity purification with mass spectrometry; HeLa cell lysates incubated with anti-NudC antibodies; co-precipitated proteins digested with trypsin, LC-MS/MS

Protein sequences, listed by entry. Tags and fused reporters are not part of them.
UniProt Q9Y266: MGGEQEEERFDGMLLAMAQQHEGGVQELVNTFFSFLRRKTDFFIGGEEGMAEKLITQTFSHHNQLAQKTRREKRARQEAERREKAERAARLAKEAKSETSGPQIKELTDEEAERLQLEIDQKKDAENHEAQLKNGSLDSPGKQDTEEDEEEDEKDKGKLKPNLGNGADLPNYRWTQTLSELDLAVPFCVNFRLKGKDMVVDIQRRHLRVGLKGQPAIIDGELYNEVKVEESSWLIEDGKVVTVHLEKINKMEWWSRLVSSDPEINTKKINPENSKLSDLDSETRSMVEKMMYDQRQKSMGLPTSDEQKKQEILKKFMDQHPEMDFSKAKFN
UniProt P21333: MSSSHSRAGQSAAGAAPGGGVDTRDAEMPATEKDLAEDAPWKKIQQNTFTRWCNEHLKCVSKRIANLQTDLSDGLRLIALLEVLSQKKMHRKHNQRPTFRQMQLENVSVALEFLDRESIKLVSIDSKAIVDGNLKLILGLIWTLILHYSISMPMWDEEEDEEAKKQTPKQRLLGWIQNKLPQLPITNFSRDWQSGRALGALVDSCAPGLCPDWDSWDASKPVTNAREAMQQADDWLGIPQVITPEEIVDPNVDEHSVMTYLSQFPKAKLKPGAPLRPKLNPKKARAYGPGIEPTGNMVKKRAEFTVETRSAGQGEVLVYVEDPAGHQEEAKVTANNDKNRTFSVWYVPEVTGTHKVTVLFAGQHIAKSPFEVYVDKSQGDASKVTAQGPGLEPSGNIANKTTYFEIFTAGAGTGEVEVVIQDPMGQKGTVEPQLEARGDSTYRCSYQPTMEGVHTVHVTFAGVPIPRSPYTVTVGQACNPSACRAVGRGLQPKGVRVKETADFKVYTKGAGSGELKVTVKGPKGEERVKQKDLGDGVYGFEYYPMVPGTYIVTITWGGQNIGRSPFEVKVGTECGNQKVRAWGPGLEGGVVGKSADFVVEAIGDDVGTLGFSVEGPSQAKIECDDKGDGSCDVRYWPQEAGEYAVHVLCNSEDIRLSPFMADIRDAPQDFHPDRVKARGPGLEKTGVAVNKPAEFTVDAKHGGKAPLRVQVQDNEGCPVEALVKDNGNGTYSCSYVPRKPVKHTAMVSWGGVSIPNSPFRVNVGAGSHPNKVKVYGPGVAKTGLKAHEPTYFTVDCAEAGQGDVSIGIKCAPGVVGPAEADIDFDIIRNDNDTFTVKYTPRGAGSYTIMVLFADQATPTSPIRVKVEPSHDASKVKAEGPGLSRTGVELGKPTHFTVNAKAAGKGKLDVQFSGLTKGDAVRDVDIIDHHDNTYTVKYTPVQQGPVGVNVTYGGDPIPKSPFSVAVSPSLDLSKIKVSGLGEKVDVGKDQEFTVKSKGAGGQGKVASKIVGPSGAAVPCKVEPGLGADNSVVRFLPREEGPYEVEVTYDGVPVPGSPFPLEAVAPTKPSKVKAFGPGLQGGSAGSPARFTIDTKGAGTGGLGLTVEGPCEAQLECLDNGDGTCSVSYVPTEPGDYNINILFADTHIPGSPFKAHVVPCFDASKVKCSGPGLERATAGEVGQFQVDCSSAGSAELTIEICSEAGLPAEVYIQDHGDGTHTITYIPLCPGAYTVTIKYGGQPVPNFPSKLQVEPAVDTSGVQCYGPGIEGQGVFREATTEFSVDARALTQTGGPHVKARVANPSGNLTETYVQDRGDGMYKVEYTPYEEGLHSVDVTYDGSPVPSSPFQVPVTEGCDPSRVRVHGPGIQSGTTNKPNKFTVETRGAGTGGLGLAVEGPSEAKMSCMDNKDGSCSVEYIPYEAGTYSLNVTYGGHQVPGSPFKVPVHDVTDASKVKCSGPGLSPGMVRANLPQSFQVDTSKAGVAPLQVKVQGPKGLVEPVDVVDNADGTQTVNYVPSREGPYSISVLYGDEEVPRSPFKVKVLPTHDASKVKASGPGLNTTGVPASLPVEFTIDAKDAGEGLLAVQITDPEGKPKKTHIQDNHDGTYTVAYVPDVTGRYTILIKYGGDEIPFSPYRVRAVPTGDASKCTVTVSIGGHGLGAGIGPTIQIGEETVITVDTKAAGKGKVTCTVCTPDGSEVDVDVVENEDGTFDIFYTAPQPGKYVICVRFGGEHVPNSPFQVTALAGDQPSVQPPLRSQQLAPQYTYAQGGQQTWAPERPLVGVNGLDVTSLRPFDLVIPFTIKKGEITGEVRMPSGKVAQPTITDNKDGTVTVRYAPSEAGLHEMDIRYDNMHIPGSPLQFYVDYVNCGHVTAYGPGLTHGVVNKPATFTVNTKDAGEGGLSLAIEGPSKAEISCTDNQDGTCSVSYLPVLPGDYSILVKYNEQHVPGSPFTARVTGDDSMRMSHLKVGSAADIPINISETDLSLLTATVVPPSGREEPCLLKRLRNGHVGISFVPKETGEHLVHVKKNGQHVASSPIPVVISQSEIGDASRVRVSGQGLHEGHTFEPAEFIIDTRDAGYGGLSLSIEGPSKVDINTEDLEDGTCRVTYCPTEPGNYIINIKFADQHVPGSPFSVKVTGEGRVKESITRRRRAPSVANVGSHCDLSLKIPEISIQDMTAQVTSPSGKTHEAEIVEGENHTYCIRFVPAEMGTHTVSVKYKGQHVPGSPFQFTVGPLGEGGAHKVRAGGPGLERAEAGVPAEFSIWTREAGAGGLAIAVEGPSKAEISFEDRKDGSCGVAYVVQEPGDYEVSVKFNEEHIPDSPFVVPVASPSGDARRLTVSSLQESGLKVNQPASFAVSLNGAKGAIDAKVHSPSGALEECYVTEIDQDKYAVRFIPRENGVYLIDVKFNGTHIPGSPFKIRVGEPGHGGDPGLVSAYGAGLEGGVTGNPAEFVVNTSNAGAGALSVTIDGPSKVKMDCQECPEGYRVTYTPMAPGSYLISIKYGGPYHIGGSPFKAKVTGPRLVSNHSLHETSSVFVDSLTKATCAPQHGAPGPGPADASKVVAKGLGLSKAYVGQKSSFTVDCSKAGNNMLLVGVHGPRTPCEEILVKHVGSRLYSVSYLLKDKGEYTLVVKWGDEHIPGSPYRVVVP

Filamin A, endogenous in HeLa cells (from UniProt P21333 1-2647)
binding: binds
